Cell number after 72 h of treatment

Source: doi:10.1371/journal.pone.0140310, primary screening data, rounded.

Drugs:
JZL184 (5000 nM): O=C(Oc1ccc([N+](=O)[O-])cc1)N1CCC(C(O)(c2ccc3c(c2)OCO3)c2ccc3c(c2)OCO3)CC1
SNS-314 (4 nM): O=C(Nc1cccc(Cl)c1)Nc1ncc(CCNc2ncnc3ccsc23)s1
vorinostat (400 nM): O=C(CCCCCCC(=O)Nc1ccccc1)NO
GW441756 (2000 nM): Cn1cc(/C=C2\C(=O)Nc3cccnc32)c2ccccc21
cediranib (2000 nM): COc1cc2c(Oc3ccc4[nH]c(C)cc4c3F)ncnc2cc1OCCCN1CCCC1
nilotinib (1000 nM): Cc1cn(-c2cc(NC(=O)c3ccc(C)c(Nc4nccc(-c5cccnc5)n4)c3)cc(C(F)(F)F)c2)cn1
LFM-A13 (10000 nM): C/C(O)=C(\C#N)C(=O)Nc1cc(Br)ccc1Br
IMD-0354 (80 nM): O=C(Nc1cc(C(F)(F)F)cc(C(F)(F)F)c1)c1cc(Cl)ccc1O
sorafenib (2000 nM): CNC(=O)c1cc(Oc2ccc(NC(=O)Nc3ccc(Cl)c(C(F)(F)F)c3)cc2)ccn1
bortezomib (5 nM): CC(C)C[C@H](NC(=O)[C@H](Cc1ccccc1)NC(=O)c1cnccn1)B(O)O

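Human melanoma cell lines in 1,536-well plates were treated with two drugs together for 72 h, then fixed, stained and imaged. Values are the number of DAPI-stained nuclei as a percentage of the DMSO control: 100 is no effect, lower means fewer cells. Every drug was used at one fixed concentration, the higher of two screened. The file gives one value for each pair and line, without errors, so small differences may be noise.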 This is part of the screen, not chosen by result.

Pair,C32
JZL184 + IMD-0354,95.4
cediranib + JZL184,85.6
IMD-0354 + cediranib,80.3
nilotinib + bortezomib,22.3
JZL184 + sorafenib,88.9
JZL184 + LFM-A13,107
bortezomib + cediranib,16.9
GW441756 + SNS-314,87.1
GW441756 + vorinostat,91.7
LFM-A13 + IMD-0354,87.0
nilotinib + LFM-A13,107
JZL184 + SNS-314,71.3
sorafenib + nilotinib,97.4
GW441756 + bortezomib,10.4
LFM-A13 + cediranib,105
SNS-314 + nilotinib,65.6
GW441756 + JZL184,82.3
LFM-A13 + SNS-314,73.0
GW441756 + IMD-0354,125
SNS-314 + vorinostat,87.5
sorafenib + cediranib,75.5
IMD-0354 + bortezomib,26.0

2 of the entries, repeated:

{"pair": "LFM-A13 + SNS-314", "C32": 73.0}
{"pair": "JZL184 + IMD-0354", "C32": 95.4}